PubChem BioAssay AID1224830, NIAID | 2016

Aim: 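Regulators of TLR4 signalling towards TNF-alpha in macrophage-like cells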 (primary screen)
Cells: human THP-1 monocytic leukaemia cells, TNF dual-luciferase reporter clone, PMA-differentiated to macrophage-like cells
Knock-down reagent: siRNA pool against human genes, 50 nM
Duration: LPS for 4 h, given about 3 days after siRNA transfection
Conditions: bacterial LPS (TLR4 ligand), 10 ng/ml
Read-out: 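Ratio of firefly to renilla light, scaled to the plate median and expressed as a robust z-score per replicate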
Direction: TNF reporter robust z-score: higher = stronger TNF reporter response to LPS
Hit rule: 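Each well counts as active if its z-score is over 2.8 or under -1.5; controls are left without a call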
This is a random part of about 18,000 reagents tested. Over the whole deposit, about 2,900 (16%) are marked active. 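Calls are made per well; low scores hint the gene aids the LPS response, high scores that it dampens it.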 Repeated entries: four replicate wells of each siRNA pool.

With MINDY1 (MINDY lysine 48 deubiquitinase 1), how do the results read?
TNF reporter robust z-score: -0.97; Call: inactive

How did the screen score MINDY1 (MINDY lysine 48 deubiquitinase 1)?
TNF reporter robust z-score: -0.74; Call: inactive

With MINDY1 (MINDY lysine 48 deubiquitinase 1), what was measured?
TNF reporter robust z-score: -0.87; Call: inactive

For MINDY1 (MINDY lysine 48 deubiquitinase 1), what was measured?
TNF reporter robust z-score: -1.03; Call: inactive

Which result is listed for A1BG (alpha-1-B glycoprotein)?
TNF reporter robust z-score: -0.17; Call: inactive

What is on record for A1BG (alpha-1-B glycoprotein)?
TNF reporter robust z-score: -0.64; Call: inactive

Which result is listed for A1BG (alpha-1-B glycoprotein)?
TNF reporter robust z-score: -0.42; Call: inactive

What is on record for A1BG (alpha-1-B glycoprotein)?
TNF reporter robust z-score: 0.43; Call: inactive

With CD3G (CD3 gamma subunit of T-cell receptor complex), what was measured?
TNF reporter robust z-score: -0.09; Call: inactive

For CD3G (CD3 gamma subunit of T-cell receptor complex), how do the results read?
TNF reporter robust z-score: 0.59; Call: inactive

Which result is listed for CD3G (CD3 gamma subunit of T-cell receptor complex)?
TNF reporter robust z-score: -0.54; Call: inactive

How did the screen score CD3G (CD3 gamma subunit of T-cell receptor complex)?
TNF reporter robust z-score: 0.34; Call: inactive

Laid out differently: entries from further up.
{"target": "CD3G (CD3 gamma subunit of T-cell receptor complex)", "TNF reporter robust z-score": -0.54, "Call": "inactive"}
{"target": "CD3G (CD3 gamma subunit of T-cell receptor complex)", "TNF reporter robust z-score": 0.34, "Call": "inactive"}

Further entries follow.
How did the screen score HES6 (hes family bHLH transcription factor 6)?
TNF reporter robust z-score: -0.75; Call: inactive

For HES6 (hes family bHLH transcription factor 6), what was measured?
TNF reporter robust z-score: 0.67; Call: inactive

With HES6 (hes family bHLH transcription factor 6), what does the deposit list?
TNF reporter robust z-score: -0.62; Call: inactive

With HES6 (hes family bHLH transcription factor 6), what was measured?
TNF reporter robust z-score: 0.51; Call: inactive

For CACHD1 (cache domain containing 1), what was measured?
TNF reporter robust z-score: -0.09; Call: inactive

How did the screen score CACHD1 (cache domain containing 1)?
TNF reporter robust z-score: 0.32; Call: inactive

With CACHD1 (cache domain containing 1), how do the results read?
TNF reporter robust z-score: 0.13; Call: inactive

For CACHD1 (cache domain containing 1), what does the deposit list?
TNF reporter robust z-score: 0.24; Call: inactive
